Results on 22 targets are retold here after the supplement of paper PMC10849652.

Chains of the proteins cited; added tags and fusions are not shown. Lines headed by an entry give the natural chain unless they say otherwise; changes in a name come on top.
UniProt Q9BW66: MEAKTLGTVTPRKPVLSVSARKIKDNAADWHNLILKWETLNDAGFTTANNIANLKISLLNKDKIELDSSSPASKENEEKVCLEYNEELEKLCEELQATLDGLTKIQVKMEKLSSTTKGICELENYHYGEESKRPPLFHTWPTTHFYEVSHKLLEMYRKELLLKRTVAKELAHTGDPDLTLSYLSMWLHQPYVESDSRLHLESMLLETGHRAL
UniProt Q86X95: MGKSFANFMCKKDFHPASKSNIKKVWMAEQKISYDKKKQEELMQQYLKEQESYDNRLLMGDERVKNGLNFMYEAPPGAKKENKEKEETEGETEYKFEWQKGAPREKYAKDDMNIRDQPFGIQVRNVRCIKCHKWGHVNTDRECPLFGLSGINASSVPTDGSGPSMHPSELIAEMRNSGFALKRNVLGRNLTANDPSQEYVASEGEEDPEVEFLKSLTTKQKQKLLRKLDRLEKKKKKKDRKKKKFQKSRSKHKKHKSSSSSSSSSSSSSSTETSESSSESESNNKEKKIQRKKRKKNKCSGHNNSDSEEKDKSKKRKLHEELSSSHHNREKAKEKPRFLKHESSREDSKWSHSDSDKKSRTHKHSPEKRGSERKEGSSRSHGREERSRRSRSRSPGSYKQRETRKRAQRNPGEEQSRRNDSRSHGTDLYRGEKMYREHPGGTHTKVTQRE
UniProt Q8WVB6, whole entry, looked up: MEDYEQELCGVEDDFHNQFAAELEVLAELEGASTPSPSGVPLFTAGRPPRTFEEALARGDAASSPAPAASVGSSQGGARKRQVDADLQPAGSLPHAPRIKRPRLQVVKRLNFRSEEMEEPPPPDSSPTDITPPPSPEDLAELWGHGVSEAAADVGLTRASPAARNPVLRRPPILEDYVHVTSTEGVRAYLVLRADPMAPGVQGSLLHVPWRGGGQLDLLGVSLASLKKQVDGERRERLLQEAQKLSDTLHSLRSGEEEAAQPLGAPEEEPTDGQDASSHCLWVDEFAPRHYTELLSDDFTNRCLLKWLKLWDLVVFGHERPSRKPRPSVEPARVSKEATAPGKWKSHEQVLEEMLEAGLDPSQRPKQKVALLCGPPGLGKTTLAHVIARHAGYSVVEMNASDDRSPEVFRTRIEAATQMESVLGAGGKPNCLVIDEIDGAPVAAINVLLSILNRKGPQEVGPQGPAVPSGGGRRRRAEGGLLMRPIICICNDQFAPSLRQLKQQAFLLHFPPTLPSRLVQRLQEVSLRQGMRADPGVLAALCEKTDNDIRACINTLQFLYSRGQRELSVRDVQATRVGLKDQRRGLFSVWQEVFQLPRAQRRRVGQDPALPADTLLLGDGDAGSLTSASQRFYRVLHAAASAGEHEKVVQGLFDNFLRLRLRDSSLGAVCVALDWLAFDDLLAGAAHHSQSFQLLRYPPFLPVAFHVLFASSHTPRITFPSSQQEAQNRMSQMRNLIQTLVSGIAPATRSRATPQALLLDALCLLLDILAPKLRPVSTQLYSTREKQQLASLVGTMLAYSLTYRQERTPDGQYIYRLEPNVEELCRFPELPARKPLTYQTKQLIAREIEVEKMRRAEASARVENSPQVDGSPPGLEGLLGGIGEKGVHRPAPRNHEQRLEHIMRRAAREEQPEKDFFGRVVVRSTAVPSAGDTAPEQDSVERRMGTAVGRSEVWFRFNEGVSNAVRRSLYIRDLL
UniProt Q9Y240: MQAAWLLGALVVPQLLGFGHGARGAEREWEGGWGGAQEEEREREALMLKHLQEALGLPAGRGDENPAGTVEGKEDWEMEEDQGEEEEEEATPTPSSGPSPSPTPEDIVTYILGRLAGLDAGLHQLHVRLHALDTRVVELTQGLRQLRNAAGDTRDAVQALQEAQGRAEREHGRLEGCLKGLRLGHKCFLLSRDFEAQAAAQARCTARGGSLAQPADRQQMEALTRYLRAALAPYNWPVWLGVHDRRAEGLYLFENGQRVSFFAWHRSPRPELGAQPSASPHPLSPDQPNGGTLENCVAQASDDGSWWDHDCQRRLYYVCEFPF
UniProt Q8N0X4: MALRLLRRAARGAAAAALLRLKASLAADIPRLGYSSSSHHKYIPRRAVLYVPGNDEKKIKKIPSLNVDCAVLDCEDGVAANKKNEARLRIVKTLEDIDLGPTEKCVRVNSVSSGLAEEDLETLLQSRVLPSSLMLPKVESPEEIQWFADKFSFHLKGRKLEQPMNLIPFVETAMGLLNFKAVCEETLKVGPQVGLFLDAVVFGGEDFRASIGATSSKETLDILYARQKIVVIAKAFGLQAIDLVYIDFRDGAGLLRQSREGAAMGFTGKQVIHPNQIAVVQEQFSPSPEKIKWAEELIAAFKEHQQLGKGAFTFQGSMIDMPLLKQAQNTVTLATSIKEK
UniProt Q9BUK0: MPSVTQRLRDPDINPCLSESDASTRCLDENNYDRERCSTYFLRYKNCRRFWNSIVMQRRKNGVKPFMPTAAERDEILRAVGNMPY
UniProt P49760, whole entry, looked up: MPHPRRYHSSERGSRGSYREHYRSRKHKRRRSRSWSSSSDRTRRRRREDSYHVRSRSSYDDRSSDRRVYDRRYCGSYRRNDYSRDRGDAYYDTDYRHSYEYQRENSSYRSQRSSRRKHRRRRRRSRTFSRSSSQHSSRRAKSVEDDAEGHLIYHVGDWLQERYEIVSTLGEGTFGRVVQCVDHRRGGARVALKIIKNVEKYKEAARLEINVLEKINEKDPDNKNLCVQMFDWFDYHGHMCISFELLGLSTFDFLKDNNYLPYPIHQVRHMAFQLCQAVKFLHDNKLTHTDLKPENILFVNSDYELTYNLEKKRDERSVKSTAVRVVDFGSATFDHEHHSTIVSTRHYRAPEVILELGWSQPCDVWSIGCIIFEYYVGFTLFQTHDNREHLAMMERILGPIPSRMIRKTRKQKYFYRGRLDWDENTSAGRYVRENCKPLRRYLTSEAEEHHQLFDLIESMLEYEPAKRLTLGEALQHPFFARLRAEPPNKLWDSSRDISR
UniProt Q14677: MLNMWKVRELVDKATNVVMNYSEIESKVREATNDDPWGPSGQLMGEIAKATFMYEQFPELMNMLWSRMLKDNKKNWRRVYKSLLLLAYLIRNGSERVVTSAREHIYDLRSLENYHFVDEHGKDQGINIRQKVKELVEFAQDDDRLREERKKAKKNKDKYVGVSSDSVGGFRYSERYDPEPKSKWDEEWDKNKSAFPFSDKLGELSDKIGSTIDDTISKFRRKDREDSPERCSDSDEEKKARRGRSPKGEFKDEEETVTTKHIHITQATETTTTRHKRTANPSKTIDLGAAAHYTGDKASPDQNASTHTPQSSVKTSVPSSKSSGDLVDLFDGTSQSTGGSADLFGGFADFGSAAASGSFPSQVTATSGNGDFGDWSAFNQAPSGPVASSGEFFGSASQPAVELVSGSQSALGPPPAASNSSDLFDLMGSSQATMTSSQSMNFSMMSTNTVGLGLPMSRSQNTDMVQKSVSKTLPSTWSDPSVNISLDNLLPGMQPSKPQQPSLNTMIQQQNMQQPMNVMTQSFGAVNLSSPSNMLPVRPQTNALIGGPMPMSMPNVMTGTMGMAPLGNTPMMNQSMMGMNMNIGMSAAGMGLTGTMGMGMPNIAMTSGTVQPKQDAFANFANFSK
UniProt Q8NCH0: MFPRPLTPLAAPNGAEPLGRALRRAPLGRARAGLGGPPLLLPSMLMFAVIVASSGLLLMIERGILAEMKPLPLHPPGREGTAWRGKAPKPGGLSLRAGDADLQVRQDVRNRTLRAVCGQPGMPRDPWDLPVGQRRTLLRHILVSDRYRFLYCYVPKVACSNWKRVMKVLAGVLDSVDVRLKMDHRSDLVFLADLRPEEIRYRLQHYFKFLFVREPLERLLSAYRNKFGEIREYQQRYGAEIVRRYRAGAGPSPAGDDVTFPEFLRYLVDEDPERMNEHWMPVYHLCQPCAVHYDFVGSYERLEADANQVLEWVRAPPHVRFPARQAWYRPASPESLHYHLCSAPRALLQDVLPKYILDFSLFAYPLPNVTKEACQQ
UniProt Q8TD26: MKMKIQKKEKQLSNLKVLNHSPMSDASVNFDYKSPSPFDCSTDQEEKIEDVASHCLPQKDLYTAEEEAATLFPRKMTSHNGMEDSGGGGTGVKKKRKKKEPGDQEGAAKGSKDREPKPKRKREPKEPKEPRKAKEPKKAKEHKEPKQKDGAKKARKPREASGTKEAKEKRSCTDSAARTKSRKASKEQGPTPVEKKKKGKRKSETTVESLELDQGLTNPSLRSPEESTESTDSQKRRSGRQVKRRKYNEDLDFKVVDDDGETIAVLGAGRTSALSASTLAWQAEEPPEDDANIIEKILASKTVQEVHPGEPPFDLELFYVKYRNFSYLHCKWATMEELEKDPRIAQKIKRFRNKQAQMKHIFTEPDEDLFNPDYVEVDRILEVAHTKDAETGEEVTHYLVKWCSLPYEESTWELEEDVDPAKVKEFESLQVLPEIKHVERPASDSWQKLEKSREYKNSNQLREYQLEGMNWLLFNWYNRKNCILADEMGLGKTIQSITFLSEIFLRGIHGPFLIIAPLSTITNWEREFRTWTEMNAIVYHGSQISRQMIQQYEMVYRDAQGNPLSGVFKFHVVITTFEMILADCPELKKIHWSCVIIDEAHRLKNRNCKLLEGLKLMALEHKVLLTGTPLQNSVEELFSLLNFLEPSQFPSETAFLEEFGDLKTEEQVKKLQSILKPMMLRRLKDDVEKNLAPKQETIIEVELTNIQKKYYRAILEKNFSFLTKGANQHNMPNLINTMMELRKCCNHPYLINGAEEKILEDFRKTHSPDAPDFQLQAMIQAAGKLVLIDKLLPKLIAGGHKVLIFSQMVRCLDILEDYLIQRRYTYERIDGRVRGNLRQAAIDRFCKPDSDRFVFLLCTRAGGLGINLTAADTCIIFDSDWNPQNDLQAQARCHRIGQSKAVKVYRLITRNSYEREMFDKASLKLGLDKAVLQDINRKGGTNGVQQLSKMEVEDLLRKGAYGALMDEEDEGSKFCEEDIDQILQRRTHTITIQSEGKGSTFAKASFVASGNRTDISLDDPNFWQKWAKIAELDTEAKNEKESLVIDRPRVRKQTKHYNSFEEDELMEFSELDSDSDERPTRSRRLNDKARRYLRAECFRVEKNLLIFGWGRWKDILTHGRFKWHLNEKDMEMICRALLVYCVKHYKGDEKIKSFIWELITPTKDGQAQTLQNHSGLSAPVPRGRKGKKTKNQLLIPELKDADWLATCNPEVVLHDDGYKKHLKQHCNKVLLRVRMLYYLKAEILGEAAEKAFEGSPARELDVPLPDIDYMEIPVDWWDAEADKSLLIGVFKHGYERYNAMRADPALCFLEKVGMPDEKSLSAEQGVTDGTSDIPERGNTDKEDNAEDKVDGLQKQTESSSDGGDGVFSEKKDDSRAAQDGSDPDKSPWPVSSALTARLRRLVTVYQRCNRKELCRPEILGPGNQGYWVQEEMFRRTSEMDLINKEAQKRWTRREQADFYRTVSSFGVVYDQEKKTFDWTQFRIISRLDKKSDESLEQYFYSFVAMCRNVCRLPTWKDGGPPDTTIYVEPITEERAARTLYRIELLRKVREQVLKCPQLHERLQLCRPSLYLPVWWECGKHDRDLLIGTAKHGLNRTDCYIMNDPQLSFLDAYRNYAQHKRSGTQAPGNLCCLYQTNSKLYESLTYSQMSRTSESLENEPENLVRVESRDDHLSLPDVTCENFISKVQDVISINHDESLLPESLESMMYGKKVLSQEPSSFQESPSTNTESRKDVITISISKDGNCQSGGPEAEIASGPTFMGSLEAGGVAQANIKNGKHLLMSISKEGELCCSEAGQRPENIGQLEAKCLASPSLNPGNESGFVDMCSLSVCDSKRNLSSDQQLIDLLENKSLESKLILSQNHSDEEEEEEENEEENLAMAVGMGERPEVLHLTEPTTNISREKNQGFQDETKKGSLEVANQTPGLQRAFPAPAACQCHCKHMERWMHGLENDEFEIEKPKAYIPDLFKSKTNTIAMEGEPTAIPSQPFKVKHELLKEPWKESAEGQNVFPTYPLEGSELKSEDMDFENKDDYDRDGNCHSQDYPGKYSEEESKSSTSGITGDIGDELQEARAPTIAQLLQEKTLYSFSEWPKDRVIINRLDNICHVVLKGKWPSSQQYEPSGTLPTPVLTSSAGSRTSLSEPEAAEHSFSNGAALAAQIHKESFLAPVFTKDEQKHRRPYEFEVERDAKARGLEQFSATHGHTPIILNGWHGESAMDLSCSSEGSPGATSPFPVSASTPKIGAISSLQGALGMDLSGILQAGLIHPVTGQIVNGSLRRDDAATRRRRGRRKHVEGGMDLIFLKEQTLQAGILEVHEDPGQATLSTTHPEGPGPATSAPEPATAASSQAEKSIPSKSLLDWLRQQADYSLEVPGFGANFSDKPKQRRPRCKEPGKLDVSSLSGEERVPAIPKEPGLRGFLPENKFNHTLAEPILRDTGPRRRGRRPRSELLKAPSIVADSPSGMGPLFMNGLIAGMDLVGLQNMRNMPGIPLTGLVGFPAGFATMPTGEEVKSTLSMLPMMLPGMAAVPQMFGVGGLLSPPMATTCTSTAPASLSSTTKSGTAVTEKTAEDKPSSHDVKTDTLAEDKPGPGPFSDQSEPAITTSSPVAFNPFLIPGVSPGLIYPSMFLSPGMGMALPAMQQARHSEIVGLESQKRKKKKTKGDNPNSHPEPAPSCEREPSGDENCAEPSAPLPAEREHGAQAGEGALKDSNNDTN

The list shows a part of the results.

Compound in the assay: CC1=C(C=C(C=C1)NC(=O)C2=CC(=CC=C2)C(C)(C)C#N)NC3=CC4=C(C=C3)N=CN(C4=O)C
Kind of assay: log2 fold change, soluble protein after heating vs DMSO (PISA); higher = thermal stabilisation; K562 lysate, 10 uM; active = over 0.2 and 3.5 SD of the protein, either way, in both replicates (recomputed). The essentials: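 Log-two fold change in thermal stability relative to solvent controls is reported from duplicates. For each sample, crude K562 extract from dounce-homogenised pellets in PBS pH 7.4 with 1 mM MgCl2, at 1 mg/mL protein, was treated with 10 μM compound for 30 min. Aliquots heated for 3 min across 48°C-58°C were pooled, brought to 0.5% NP-40 at 4°C and cleared at 21,000xg for 90 min. The supernatant was quantified by TMTpro 16plex LC-MS/MS with channel sums equalised.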
With CINP isoform 3 (UniProt Q9BW66), the log2 fold change was inactive: 0.039.
The value for CMC4 (UniProt P56277) was inactive: -0.331; that for CLIP1, A0A3B3ITA2 was inactive: 0.019; that for CIR1 (UniProt Q86X95) was inactive: 0.
The figure for CHD2 (UniProt O14647) is inactive: 0.026.
The figure for CHTF18 (UniProt Q8WVB6) is inactive: -0.017; for CLEC11A (UniProt Q9Y240) it is inactive: -0.043.
For CKAP4 (UniProt Q07065), the log2 fold change was inactive: -0.054.
The figure for CHCHD5 (UniProt Q9BSY4) is inactive: -0.146; for CLASP2 (UniProt O75122) it is inactive: -0.098.
The figure for CLSTN1 (UniProt O94985) is inactive: -0.123; for CHMP4A (UniProt H0YIN6) it is inactive: 0.33.
As to CLYBL (UniProt Q8N0X4), the log2 fold change was inactive: -0.299.
The value for CHCHD7 isoform 4 (UniProt Q9BUK0) was inactive: -0.025; that for CLSTN3 isoform 2 (UniProt Q9BQT9) was inactive: -0.144.
For CKLF (UniProt Q9UBR5), the log2 fold change was inactive: 0.032.
The figure for CLK2 (UniProt P49760) is inactive: -0.003; for CLINT1 (UniProt Q14677) it is inactive: -0.038; for CHST14 (UniProt Q8NCH0) it is inactive: 0.008.
The figure for CHD6 (UniProt Q8TD26) is inactive: 0.031; for CHST2 (UniProt Q9Y4C5) it is inactive: -0.173; for CHURC1-FNTB (UniProt B4DL54) it is inactive: 0.268.
